In PubChem BioAssay AID2685 (National Center for Advancing Translational Sciences (NCATS), 2010):
This is one part of the list. The main result of the screen is listed elsewhere. These columns were measured beside it and carry no call. Most of these compounds were active or inconclusive in the main read-out, so they are no random draw. Words in brackets tell the shape of the fitted curve; partial curves, single points and poor fits give uncertain potencies.

Experiment: qHTS Assay for Lipid Storage Modulators in Drosophila S3 Cells;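 as to cell number change: cells counted by Cell Tracker Red CMTPX staining in the red channel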
Settings: BODIPY lipid droplet fluorescence, 18-24 h; for cell number change: measured here: cell count max response, cells fed with added oleic acid
Method in brief: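 Drosophila S3 cells got compounds at several concentrations plus oleic acid (400 uM solution). Laser-scanning cytometry with 488 nm excitation read lipid droplets at 500-530 nm and cells at 575-640 nm. Percent activity was relative to 20 uM Triacsin C.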

[1] = measured here: cell number channel AC50, cells fed with added oleic acid
[2] = measured here: lipid fluorescence (Fed channel) AC50, cells fed with added oleic acid

Row | Structure (SMILES) | cell number change [%] | AC50 [1] | AC50 [2]
1 | O=C(NNC(=O)c1ccc2c(=O)n3c(nc2c1)CCC3)c1ccc(F)cc1 | 47.6 | 29.1 µM [rising, single point] | –
2 | C=CC[n+]1ccc(/C=C2\C=Cc3cc(C)ccc3N2CC)c2ccccc21 | -48.8 | 0.92 µM [falling, full curve] | 1.3 µM [falling, full curve]
3 | COc1ccc(CNC2CCSc3ccccc32)cc1OC (stereo not drawn) | 7.21 | – | –
4 | CCOc1ccccc1NC(=O)CCc1nnc2ccc(N3CCC4(CC3)OCCO4)nn12 | 5.24 | 5.8 µM [rising, single point] | 29.1 µM [falling, single point]
5 | C=CCC(C#Cc1ccc(C)cc1)N(CC)CC (stereo not drawn) | – | 7.31 µM [falling, partial curve, poor fit] | 5.17 µM [falling, partial curve]
6 | N#CC(c1ccc(Cl)nn1)c1ccc(Cl)cc1Cl (stereo not drawn) | 4.13 | – | –
7 | COc1ccc(-n2ncc3c2CC(C)(C)CC3NC(=O)c2ocnc2C)cc1 (stereo not drawn) | -39.4 | 0.316 µM [falling, full curve] | 35.5 µM [falling, single point]
8 | COc1ccc(C(c2nnnn2Cc2ccccc2)N2CCN(c3nc4ccccc4s3)CC2)cc1 (stereo not drawn) | 16.8 | 0.366 µM [rising, full curve, poor fit] | 0.517 µM [rising, full curve]
9 | O=C(Cn1ncn2c(cc3sccc32)c1=O)NC1CCCC1 | -21.8 | – | 0.58 µM [falling, single point]
10 | CC(C)NS(=O)(=O)c1ccc(CCC(=O)O)cc1 | -10.3 | – | 6.51 µM [falling, single point]
11 | COCCCNC(=O)CN(c1ccc(OC)cc1)S(=O)(=O)c1ccc(NC(C)=O)cc1 | -24.4 | 0.00461 µM [falling, full curve, poor fit] | –
12 | COc1ccc(N=Nc2ccc(O)c3ncccc23)cc1 | -17.4 | – | 14.6 µM [falling, partial curve]
13 | COc1ccccc1CNC(=O)COC(=O)COc1ccccc1F | 3.48 | – | –
14 | CCN(C(=O)C(C)OC(=O)C1C(C(=O)OC)=C(C)NC(C)=C1C(=O)OC)c1ccccc1 (stereo not drawn) | -19.9 | – | 16.4 µM [falling, single point]
15 | CCOc1ccc(C(=O)/C=C/Nc2ccc(S(=O)(=O)Nc3cc(C)nc(C)n3)cc2)cc1 | 5.13 | – | –
16 | CC(C)(C)OC(=O)CNC(=O)c1nc[nH]c1C(=O)N1CCc2ccccc2C1 | 10.8 | – | –
17 | CCCc1c(C(=O)N/N=C/c2cccs2)nnn1-c1nonc1N | 16.8 | – | 0.58 µM [rising, single point]
18 | COc1ccc(CNCCC(c2ccc(OC(C)C)cc2)c2ccccc2OC)cc1OC (stereo not drawn) | -67.2 | 29.1 µM [falling, single point] | 29.1 µM [falling, single point]
19 | Cc1cc(C(=O)NCc2csc(-c3ccccc3)n2)no1 | 33.9 | 0.92 µM [rising, full curve, poor fit] | 29.1 µM [rising, single point]
20 | O=C(Nc1ccc2c(c1)OCO2)c1ccc(Cl)cc1Cl | 23.2 | – | –

Row | Structure (SMILES) | cell number change [%] | AC50 [1] | AC50 [2]
21 | Cc1ccc(Oc2c(C(N)=O)cc([N+](=O)[O-])cc2[N+](=O)[O-])cc1 | -81 | 20.6 µM [falling, partial curve] | 29.1 µM [falling, single point]
22 | Cc1cccc(OCCOCCN2CCNCC2)c1C | -18.4 | – | 0.00461 µM [rising, full curve, poor fit]
23 | COc1ccc(NC(=O)c2cccc(NC(=O)C3C4CC5OC(=O)C3C5C4)c2)c(OC)c1 (stereo not drawn) | 169 | 9.2 µM [rising, partial curve] | 1.46 µM [rising, partial curve]
24 | COc1ccccc1NCc1cc(=O)oc2c(C)c(O)ccc12 | 13.9 | – | 0.231 µM [falling, full curve, poor fit]
25 | O=C1/C(=C\Nc2ccc(OC(F)(F)F)cc2)CCN1c1ncccn1 | 12.5 | – | 29.1 µM [rising, single point]
26 | COc1cccc2cc(C(=O)NCC3CCCO3)c(=O)oc12 (stereo not drawn) | 2.89 | – | 4.61 µM [rising, full curve]
27 | Cc1ccccc1-c1cc2nc(C)c(C)c(=O)n2[nH]1 | -1.75 | – | 6.51 µM [rising, single point]
28 | COc1ccc(CN2C(=O)c3cccnc3C2=O)cc1S(=O)(=O)N1CCOc2ccc(C)cc21 | -35 | 25.9 µM [falling, single point] | 10.3 µM [falling, partial curve]
29 | CN(c1ccc(C(=O)Nc2ccc3c(c2)OCCO3)cc1)S(C)(=O)=O | 83.9 | 23.1 µM [rising, single point] | –
30 | CCOC(=O)c1cc(-c2ccncc2)nc2c1c(C)nn2-c1ccccn1 | -19.5 | – | 1.84 µM [rising, full curve]
31 | O=C(Nc1ccc(Cl)cc1C(=O)Nc1ccccn1)c1ccco1 | 10.4 | – | 4.11 µM [rising, full curve]
32 | CCN(CC)S(=O)(=O)c1cc(NC(=O)c2ccc3c(c2)NC(=O)C(C)S3)ccc1C (stereo not drawn) | 3.23 | – | 0.92 µM [falling, partial curve]
33 | O=C(/C=C/c1ccccc1)N1CCN(c2ccccn2)CC1 | 1.39 | – | 29.1 µM [rising, single point]
34 | CCC1CCC2(CC1)NC(CO)(CO)CO2 (stereo not drawn) | 38.5 | 3.26 µM [rising, full curve, poor fit] | –
35 | CC(C)[C@H](NC(=O)c1ccco1)C(=O)OCC(=O)N1CC(=O)Nc2ccccc21 | 26.4 | 3.26 µM [rising, single point] | –
36 | Cc1cc(F)ccc1S(=O)(=O)Nc1ncnc2scc(-c3ccc(F)cc3)c12 | -42.3 | 32.6 µM [falling, single point] | 18.4 µM [falling, single point]
37 | Cc1cc(C(=O)NCc2ccccc2)c(=O)[nH]c1C | – | – | 0.0058 µM [falling, full curve, poor fit]
38 | CN1C(=O)CSc2ccc(NC(=O)N3CCC(N4CCCCC4)CC3)cc21 | -0.36 | – | 6.51 µM [falling, partial curve, poor fit]
39 | COc1ccc(NC(=O)CN2CCN(CC(=O)Nc3cc(OC)cc(OC)c3)CC2)cc1 | – | – | 6.51 µM [rising, partial curve]
40 | Cc1ccc(C)c(NC(=O)CN(C)C(C)C(=O)N2CC(C)CC(C)C2)c1 (stereo not drawn) | 31.7 | 1.64 µM [rising, full curve, poor fit] | –

Row | Structure (SMILES) | cell number change [%] | AC50 [1] | AC50 [2]
41 | CCOc1cccc(-c2nnc3sc(-c4cc(OC)c(OC)c(OC)c4)nn23)c1 | -1.66 | – | –
42 | CC(OC(=O)Cn1cnc2c1c(=O)n(C)c(=O)n2C)C(=O)NCc1ccccc1 (stereo not drawn) | -0.723 | 6.51 µM [falling, single point] | –
43 | O=C(O)CCCC(=O)Nc1ccc(Sc2ccc([N+](=O)[O-])cc2)cc1 | – | – | 0.651 µM [rising, full curve]
44 | Cc1cccc[n+]1CC(=O)N1c2ccccc2Sc2ccccc21 | 2.74 | – | 0.184 µM [rising, full curve, poor fit]
45 | CC12CCC(=O)N1C(C(=O)OCC(=O)Nc1ccc(Cl)c(Cl)c1)CS2 (stereo not drawn) | 23.1 | – | 0.82 µM [falling, full curve, poor fit]
46 | CCOc1cc(CNn2cn[nH]c2=S)cc(Cl)c1OCc1ccccc1F | -54 | 16.4 µM [falling, partial curve] | 14.6 µM [falling, partial curve]
47 | O=C(CC(=O)c1ccccc1O)c1ccc(F)cc1 | -3.65 | 2.06 µM [rising, partial curve] | 23.1 µM [falling, partial curve]
48 | O=C(CSc1ncccc1-c1nc2ccccc2[nH]1)NCc1ccco1 | -1.9 | – | 0.0517 µM [rising, full curve]
49 | O=C(NNC(=O)c1cccnc1)Nc1cccc2ccccc12 | 37.5 | – | –
50 | Cc1ccc(-n2nc(C)c3cc(C(=O)O)sc32)cc1 | 25.1 | 6.51 µM [falling, single point] | 6.51 µM [falling, single point]
51 | CCOc1cc(C(=O)OCC(=O)Nc2c(C)cccc2C)ccc1OCC(=O)N1CCOCC1 | – | 0.731 µM [falling, single point] | 29.1 µM [rising, single point]
52 | O=C(O)C1C2C=CC(C2)C1C(=O)Nc1ccccc1Br (stereo not drawn) | – | – | 29.1 µM [rising, single point]
53 | COc1ccc(S(=O)(=O)N2CN3CCN(C3)C2)cc1 | 37.2 | 7.31 µM [rising, partial curve, poor fit] | –
54 | CCCc1cc(C(=O)NCc2ccc(OC)cc2)no1 | 6.3 | – | 6.51 µM [rising, single point]
55 | CC(C)(C)NC(=O)CN(C(=O)C(=O)Nc1ccc2c(c1)OCCO2)N1CCOCC1 | 12.2 | 0.82 µM [rising, full curve, poor fit] | –
56 | Cc1cnc(C(=O)OCC(=O)N2CCN(S(=O)(=O)c3ccc(Cl)cc3)CC2)cn1 | -96 | 23.1 µM [falling, partial curve] | –
57 | O=C(NCCCNC(=O)c1cc(Cl)ccc1Cl)c1ccco1 | 4.76 | – | 0.206 µM [falling, single point]
58 | COc1ccc(CN(CC(=O)NCc2ccccc2)C(=O)CCC(=O)Nc2ccccn2)cc1 | 17.8 | – | –
59 | C=CCn1c(C(C)NC(=O)c2ccccc2)n[nH]c1=S (stereo not drawn) | -18.3 | 3.26 µM [rising, partial curve, poor fit] | –

2 of the compounds above, with each value named:
CCCc1cc(C(=O)NCc2ccc(OC)cc2)no1
  cell number change [%]: 6.3; AC50 [2]: 6.51 µM [rising, single point]
CC(C)(C)NC(=O)CN(C(=O)C(=O)Nc1ccc2c(c1)OCCO2)N1CCOCC1
  cell number change [%]: 12.2; AC50 [1]: 0.82 µM [rising, full curve, poor fit]
